In PubChem BioAssay AID248 (DTP/NCI, 2004) one finds T/C and survivor count data, which are given here for seven compounds.

SMILES strings stand for the structures. The list is a part of this screen's results and no random one: it is rich in T/C values a quarter to a half above the control, in often repeated tests (any T/C) and in doses without a T/C. Further doses and runs are listed elsewhere. T/C: endpoint of the treated group in % of that of the vehicle group. Some entries give survivors of the animals treated and no T/C: the source holds a T/C of zero for them, seemingly a mark for toxic or unscored doses. Some doses without a T/C left all or most animals alive at the check, yet need not have been tolerated: the source hardly ever lists a survival T/C far under the control, and the zero likely stands for such cases as well. Counts of survivors are from the toxicity check (mostly the fifth day) where no day follows; animals may have died later. Schedule codes are those of the source, read here as Q, the interval in days (D) or hours (H), X, the number of doses. For survival time, this PubChem deposit counts one and a half times the control or more as active, and values a quarter to a half above the control carry no call in these data; other NCI protocols may use other cut-offs. Some T/C values are followed by the survivors on the day toxicity was checked, most often the fifth; where none is given, no animal had died by that day. Some entries hold several experiments; their values stand side by side, smallest first. Some schedules carry Z or #; the key to these is not given.

In this assay the test system is L1210 leukemia ip in BDF1 mice, survival T/C. The experiment in a line: NCI In Vivo Anticancer Drug Screen. Data for tumor model L1210 Leukemia (intraperitoneal) in B6D2F1 (BDF1) mice. Conditions: T/C endpoint: mean survival time, higher T/C = longer survival.

As to `CCCOC(=O)C(C)(O)C(Cl)c1ccccc1` (stereo unspecified), the T/C runs as follows: (dose: 50.0 mg/kg/injection, schedule: Q04DX002 (ip), vehicle: saline) 125 % of control; (dose: 200.0 mg/kg/injection, schedule: Q04DX002 (ip), vehicle: saline) 129 % of control.
For the compound `CCN(CC)CCNc1ccc([N+](=O)[O-])c2sc3ccccc3c(=O)c12`, the T/C reads like this: (dose: 17.0 mg/kg/injection, schedule: Q01DX Z (ip), vehicle: methylcellulose (MC)) 130 % of control; (dose: 25.0 mg/kg/injection, schedule: Q01DX Z (ip), vehicle: methylcellulose (MC)) 147 % of control; (dose: 26.0 mg/kg/injection, schedule: Q01DX Z (ip), vehicle: carboxymethylcellulose (CMC)) 143 % of control; (dose: 84.0 mg/kg/injection, schedule: Q01DX Z (ip), vehicle: methylcellulose (MC)) 144 % of control.
On to `Cc1ccc(OCC(=O)O)c(Cl)c1`, for which the survivor count (dose: 400.0 mg/kg/injection, schedule: Q01DX009 (ip), vehicle: Klucel (hydroxypropylcellulose) (HPC)) was 1 of 6.
Regarding `CN(C)N=Nc1c(Cl)cc(Cl)cc1C(N)=O`, the T/C is 136 % of control (dose: 133.0 mg/kg/injection, schedule: Q01DX009 (ip), vehicle: saline); 141 % of control (dose: 200.0 mg/kg/injection, schedule: Q01DX009 (ip), vehicle: saline with Tween-80); 132 % of control (dose: 264.0 mg/kg/injection, schedule: Q04DX003 (ip), vehicle: saline with Tween-80); 132 % of control [5 of 6 alive] (dose: 400.0 mg/kg/injection, schedule: Q01DX009 (ip), vehicle: saline with Tween-80); 138 and 140 % of control [5 of 6 alive] (dose: 400.0 mg/kg/injection, schedule: Q04DX003 (ip), vehicle: saline with Tween-80). In addition, the survivor count (dose: 600.0 mg/kg/injection, schedule: Q04DX003 (ip), vehicle: saline with Tween-80) is 3 of 6.
For `NNc1c(F)c(F)c(C(F)(F)F)c(NN)c1F`, the survivor count was 1 of 3 (dose: 25.6 mg/kg/injection, schedule: Q04DX002 (ip), vehicle: saline with Tween-80); 2 of 3 (dose: 64.0 mg/kg/injection, schedule: Q04DX002 (ip), vehicle: saline with Tween-80); 0 of 3 (dose: 160.0 mg/kg/injection, schedule: Q04DX002 (ip), vehicle: saline with Tween-80); 0 of 3 (dose: 400.0 mg/kg/injection, schedule: Q04DX002 (ip), vehicle: saline with Tween-80).
Take `O=[N+]([O-])c1c(Cl)ccc2c(Cl)ccnc12`: for the setting “dose: 400.0 mg/kg/injection, schedule: Q04DX003 (ip), vehicle: gum acacia”, the survivor count is reported as 2 of 6.
In the case of `NC(COC(c1ccccc1)(c1ccccc1)c1ccccc1)C(=O)O` (stereo unspecified), the T/C is 127 % of control (dose: 50.0 mg/kg/injection, schedule: Q01DX009 (ip), vehicle: other) and 142 % of control (dose: 100.0 mg/kg/injection, schedule: Q01DX009 (ip), vehicle: other). For the same compound, the survivor count (dose: 400.0 mg/kg/injection, schedule: Q01DX009 (ip), vehicle: other) is 0 of 6.
